# Results from PubChem BioAssay AID504444 (National Center for Advancing Translational Sciences (NCATS), 2011).
# Out of some 360,000 compounds screened, about 7,500 (2.1%) were called active. Inconclusive means that the source gave no clear call. Such entries were picked first, then a sample of the others. The call rests on the fitted dose curve; in most records, active means well fitted inhibition curve with a large enough effect; inconclusive means small, poorly fitted or top-dose-only effect, or effect the other way; inactive means flat fitted curve, though single readings scatter. A potency beside an inconclusive call is a rough fit, not a confirmed value.
# Test: Nrf2 qHTS screen for inhibitors; further: nearly all actives have a fitted effect of over 60% in size
# Conditions: A549 ARE-Fluc reporter, luciferase luminescence, 18-24 h; series mostly up to 46 µM
# Method in brief: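 Cells were seeded and rested 2 h, then exposed to compounds for 18-24 h. CellTiter-Fluor was read first as a viability measure. BugLite was added 15 min before the final luminescent read of ARE-luciferase activity in A549 cells.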
# Potency means the concentration at half of the fitted maximal effect.
row,SMILES,Potency
1,COc1cc(/C=N/NC(=O)c2c(-c3c(Cl)cccc3Cl)noc2C)ccc1OCC(N)=O,inactive
2,O=C(O)c1ccc(N2CCCCS2(=O)=O)cc1,inactive
3,CS(=O)(=O)c1cnc2c(-c3ccsc3)cnn2c1N,"inconclusive: 20.6 µM [activator, single point]"
4,CCCc1ccc(-c2cc(C(=O)N/N=C/c3ccc([N+](=O)[O-])o3)c3ccccc3n2)cc1,active: 10.3 µM
5,CC(=O)N(c1ccccc1)C1CCCC1,inactive
6,CC1CC=CC2C1C(=O)N(Cc1ccccc1)C2c1ccc(F)c(/C=C/c2ccccc2)c1 (configuration not stated),inactive
7,CC(C)(C)[C@H](N)C(=O)N[C@H]1CCC2C3CC=C4C[C@@H](O)CC[C@]4(C)C3CC[C@@]21C (some centres not stated),"inconclusive: 29.1 µM [falling, single point]"
8,C=C(C)CNC(=O)CCc1nnc(Cc2cccc(C(F)(F)F)c2)o1,"inconclusive: 29.1 µM [activator, single point]"
9,CCOC(=O)c1c(N)sc(C(O)(C(F)(F)F)C(F)(F)F)c1-c1ccc(Cl)cc1,"inconclusive: 29.1 µM [falling, single point]"
10,COc1nnc(-c2ccc(N3CCCCC3)c(N)c2)c2ccccc12,active: 20.6 µM
11,Cc1ccc(NC(=O)CCn2cccc2)cc1F,"inconclusive: 9.2 µM [activator, partial curve, poor fit]"
12,Cc1cc(=O)n(CC(=O)N2CCN(c3ccccc3F)CC2)c2c1c(C)nn2C,active: 8.2 µM
13,Cc1ccc(NS(=O)(=O)c2cccc(C(=O)NC3CC3)c2)c(C)c1,"inconclusive: 29.1 µM [falling, partial curve, poor fit]"
14,CC(C)C(=O)Nc1ccc(C(=O)NNC(=O)CCc2ccccc2)cc1,"inconclusive: 0.103 µM [falling, full curve, poor fit]"
15,COc1ccc(-c2c3c(=O)n(C)c(=O)n(C)c3c3n2-c2ccccc2NC3c2ccco2)cc1 (configuration not stated),inactive
16,C=CCn1c(CNC(=O)c2cccs2)nnc1SCc1ccc(Cl)cc1Cl,"inconclusive: 18.4 µM [falling, partial curve]"
17,COCCn1c(-c2cccs2)nc2nc3ccccc3nc21,inactive
18,CC(=O)N1N=C(c2ccc(C)cc2)OC1c1ccc(C(C)C)cc1 (configuration not stated),"inconclusive: 23.1 µM [activator, partial curve]"
19,COc1cc(C(=O)O[C@H]2C/C(C)=C/CC[C@@]3(C)O[C@@H]3[C@H](O)[C@@H]2C(C)C)cc(OC)c1OC,"inconclusive: 14.6 µM [falling, partial curve, poor fit]"
20,O=C(CCCl)Nc1nc2c(s1)CCc1ccccc1-2,inactive
21,COc1ccccc1C(O)c1nccn1Cc1ccccc1 (configuration not stated),inactive
22,c1ccc(-c2noc(-c3cccc4ccccc34)n2)cc1,"inconclusive: 8.2 µM [activator, partial curve]"
23,CC(=O)Oc1ccc(-c2csc(Nc3cccc(C)n3)n2)cc1,"inconclusive: 2.91 µM [activator, full curve, poor fit]"

row,SMILES,Potency
1,OC(COc1ccc2cc(Br)ccc2c1)CN1CCCC1 (configuration not stated),"inconclusive: 5.17 µM [activator, full curve]"
2,CCOC(=O)c1c(C)[nH]c(C)c1S(=O)(=O)N(C)CC(=O)Nc1ccc(C)cc1C,"inconclusive: 1.46 µM [activator, full curve]"
3,Nc1ccc(-c2nc3ccc(-c4nc5ccccc5o4)cc3[nH]2)cc1,"inconclusive: 0.461 µM [falling, full curve]"
4,Cc1cc(C)c2oc(-c3cccc(NC(=O)COc4ccc([N+](=O)[O-])cc4)c3)nc2c1,"inconclusive: 0.92 µM [activator, full curve, poor fit]"
5,CCC(C)c1ccc(NC(=O)c2cccnc2)cc1 (configuration not stated),"inconclusive: 6.51 µM [activator, partial curve]"
6,COc1cc(C[C@@H](C)[C@@H](C)Cc2ccc(O)c(OC)c2)ccc1O,"inconclusive: 10.3 µM [falling, partial curve, poor fit]"
7,COc1ccc2c(-c3ccc(OCCN4CCOCC4)cc3)c(-c3ccccc3OC)sc2c1,"inconclusive: 16.4 µM [falling, partial curve, poor fit]"
8,Cc1ccc(C(=O)CSc2nnc3n2CCCCC3)s1,"inconclusive: 14.6 µM [activator, partial curve]"
9,Fc1ccc(-c2ccc(CNCc3ccccn3)o2)cc1,"inconclusive: 25.9 µM [activator, single point]"
10,CC(C)N1C(=O)c2ccccc2C1C(=O)NC1CCCCCC1 (configuration not stated),"inconclusive: 23.1 µM [falling, partial curve, poor fit]"
11,CCOc1ccc(-n2nc3ccc(NC(=O)c4ccc5c(c4)OCCO5)cc3n2)cc1,"inconclusive: 1.64 µM [falling, partial curve, poor fit]"
12,Cc1ccc(NC(=O)c2ccc(OC(F)F)cc2)cc1S(=O)(=O)N(C)C,"inconclusive: 29.1 µM [falling, single point]"
13,CCN(CC(=O)Nc1ccccc1C(F)(F)F)C(=O)c1ccccc1OCc1ccc(F)cc1,inactive
14,O=C(CSc1nnc(-c2ccncc2)s1)Nc1ccccc1,"inconclusive: 3.26 µM [falling, partial curve]"
15,COc1ccc(OC)c(NC(=O)CN(c2ccc(C(C)C)cc2)S(=O)(=O)c2c(C)noc2C)c1,"inconclusive: 23.1 µM [falling, single point]"
16,CCOC(=O)C1C(=O)CC(C)(O)C(C(=O)OCC)C1c1ccccc1OC (configuration not stated),"inconclusive: 29.1 µM [activator, single point]"
17,CN1CCN(C(=S)c2ccc(-c3cccc(Cl)c3Cl)o2)CC1,"inconclusive: 5.8 µM [activator, partial curve]"
18,Oc1c(C=NCc2ccccc2)sc2ccccc12,"inconclusive: 25.9 µM [activator, single point]"
19,CC1(C)COC(c2ccc3c(c2)OCO3)OC1,"inconclusive: 29.1 µM [activator, partial curve, poor fit]"
20,COc1ccc(-c2csc(N)n2)cc1,"inconclusive: 14.6 µM [activator, partial curve, poor fit]"
21,O=[N+]([O-])c1ccc(Nc2nc(N/N=C\c3ccc4c(c3)OCO4)nc(N3CCCCC3)n2)cc1,"inconclusive: 14.6 µM [falling, single point]"
22,Cc1ccc(F)c(C2C3C=CCC(c4ccccc4)C3C(=O)N2Cc2ccccc2)c1 (configuration not stated),"inconclusive: 23.1 µM [falling, partial curve]"
23,COc1ccc(/C(C)=N/Nc2ccc(F)cc2F)c(O)c1,"inconclusive: 14.6 µM [activator, single point]"

# Already shown: entries from further up.
row,SMILES,Potency
1,OC(COc1ccc2cc(Br)ccc2c1)CN1CCCC1 (configuration not stated),"inconclusive: 5.17 µM [activator, full curve]"
2,CCOC(=O)c1c(C)[nH]c(C)c1S(=O)(=O)N(C)CC(=O)Nc1ccc(C)cc1C,"inconclusive: 1.46 µM [activator, full curve]"
3,Nc1ccc(-c2nc3ccc(-c4nc5ccccc5o4)cc3[nH]2)cc1,"inconclusive: 0.461 µM [falling, full curve]"
4,Cc1cc(C)c2oc(-c3cccc(NC(=O)COc4ccc([N+](=O)[O-])cc4)c3)nc2c1,"inconclusive: 0.92 µM [activator, full curve, poor fit]"
5,CCC(C)c1ccc(NC(=O)c2cccnc2)cc1 (configuration not stated),"inconclusive: 6.51 µM [activator, partial curve]"
6,COc1cc(C[C@@H](C)[C@@H](C)Cc2ccc(O)c(OC)c2)ccc1O,"inconclusive: 10.3 µM [falling, partial curve, poor fit]"
7,COc1ccc2c(-c3ccc(OCCN4CCOCC4)cc3)c(-c3ccccc3OC)sc2c1,"inconclusive: 16.4 µM [falling, partial curve, poor fit]"
8,Cc1ccc(C(=O)CSc2nnc3n2CCCCC3)s1,"inconclusive: 14.6 µM [activator, partial curve]"
9,Fc1ccc(-c2ccc(CNCc3ccccn3)o2)cc1,"inconclusive: 25.9 µM [activator, single point]"
10,CC(C)N1C(=O)c2ccccc2C1C(=O)NC1CCCCCC1 (configuration not stated),"inconclusive: 23.1 µM [falling, partial curve, poor fit]"
11,CCOc1ccc(-n2nc3ccc(NC(=O)c4ccc5c(c4)OCCO5)cc3n2)cc1,"inconclusive: 1.64 µM [falling, partial curve, poor fit]"
12,Cc1ccc(NC(=O)c2ccc(OC(F)F)cc2)cc1S(=O)(=O)N(C)C,"inconclusive: 29.1 µM [falling, single point]"
13,CCN(CC(=O)Nc1ccccc1C(F)(F)F)C(=O)c1ccccc1OCc1ccc(F)cc1,inactive
14,O=C(CSc1nnc(-c2ccncc2)s1)Nc1ccccc1,"inconclusive: 3.26 µM [falling, partial curve]"
15,COc1ccc(OC)c(NC(=O)CN(c2ccc(C(C)C)cc2)S(=O)(=O)c2c(C)noc2C)c1,"inconclusive: 23.1 µM [falling, single point]"
16,CCOC(=O)C1C(=O)CC(C)(O)C(C(=O)OCC)C1c1ccccc1OC (configuration not stated),"inconclusive: 29.1 µM [activator, single point]"

# Next part.

row,SMILES,Potency
1,Cc1cc(C)cc(C(=O)NC(CC(N)=O)c2ccc(NCCN3CCCC3)c([N+](=O)[O-])c2)c1 (configuration not stated),"inconclusive: 18.4 µM [activator, partial curve, poor fit]"
2,CC(=O)c1ccccc1OCc1ccc(C(=O)c2ccccc2)cc1,"inconclusive: 20.6 µM [falling, single point]"
3,Cc1oc(-c2cccs2)nc1CN1CCN(C(C)C)C(CCO)C1 (configuration not stated),"inconclusive: 29.1 µM [activator, single point]"
4,O=C(CSc1nnc(-c2cccc(Br)c2)o1)N1CCNC1=O,"inconclusive: 5.8 µM [activator, full curve]"
5,Cc1cc(C(=O)COC(=O)C2=NNC(=O)CC2)c(C)n1-c1ccc(OC(F)F)cc1,"inconclusive: 25.9 µM [falling, single point]"
6,CN(C)CCCNC(=O)c1ccc(-c2nc(-c3ccc(Cl)cc3)cs2)cc1,"inconclusive: 20.6 µM [activator, partial curve]"
7,Cc1ccc(NC(=O)c2ccc(NCc3ccc(F)cc3)nc2)cc1,inactive
8,CCOC(=O)c1c(C)c(-c2ccccc2)n(CC(=O)NC2CCCCC2)c1C,"inconclusive: 6.51 µM [activator, single point]"
9,Cc1ccc(NC(=O)Nn2cnnc2)cc1Cl,inactive
10,COc1cc(C2c3sc(=O)[nH]c3SC3C4CCC(C4)C23)ccc1O (configuration not stated),"inconclusive: 32.6 µM [falling, single point]"
11,CSc1cccc(NC(=O)CCCn2c(=O)c3cccn3c3cccnc32)c1,"inconclusive: 13 µM [falling, partial curve]"
12,Cc1ccc2nc(NC(=O)C3CCN(C(=O)c4ccc(F)cc4)CC3)sc2c1,"inconclusive: 0.82 µM [activator, partial curve]"
13,COc1ccc(C2SCCN2C(=S)Nc2cccc(Cl)c2)cc1 (configuration not stated),"inconclusive: 20.6 µM [falling, single point]"
14,Cc1ccc(NC(=S)N2CCCCC2CO)cc1C (configuration not stated),"inconclusive: 18.4 µM [activator, partial curve]"
15,O=C(Nc1ccc2oc(-c3ccncc3)nc2c1)c1cccs1,"inconclusive: 9.2 µM [falling, partial curve]"
16,COc1cc(C2NC(=O)c3c(sc4c3CCN(C)C4)N2)cc(OC)c1OC (configuration not stated),inactive
17,Cn1nc(C(=O)Nc2ccc(F)c(Cl)c2)c2c1-c1ccccc1S(=O)(=O)C2,inactive
18,Cc1ccc(NC(=O)c2ccc3c(c2)OCCO3)cc1,"inconclusive: 0.651 µM [activator, partial curve]"
19,CCc1nc(SCc2ccc(Br)cc2)n[nH]1,"inconclusive: 3.26 µM [activator, full curve]"
20,Cc1ccccc1-c1nnc(-c2ccccc2C)o1,"inconclusive: 18.4 µM [activator, single point]"
21,O=C(/C=C/c1ccccc1)NC(=S)Nc1ccc(N2CCOCC2)cc1,"inconclusive: 14.6 µM [falling, single point]"
